In article PMC3174242 one finds binding data, which are given here for two molecules.

These are yes or no findings as the source states them, for the method shown. For part of these data: In cells and extracts the contact can be indirect. Some binding calls cover weakened binding; strength is not graded here. For part of these data: Sequences can lack the tags named with a protein.

The target of one assay is T1, GST-tagged Rep8 (human) (UniProt O00124).
T1 sequence: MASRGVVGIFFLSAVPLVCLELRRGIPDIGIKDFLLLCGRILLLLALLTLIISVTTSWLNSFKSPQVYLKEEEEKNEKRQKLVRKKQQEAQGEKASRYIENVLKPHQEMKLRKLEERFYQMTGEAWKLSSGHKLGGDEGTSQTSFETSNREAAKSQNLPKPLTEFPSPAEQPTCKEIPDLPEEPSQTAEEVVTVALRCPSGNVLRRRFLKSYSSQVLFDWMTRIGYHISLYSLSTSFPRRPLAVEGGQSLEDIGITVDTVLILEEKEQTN
Briefly: pull-down; GST or GST fusion proteins immobilised on glutathione Sepharose beads; purified p97 (from red blood cells, or 6His-tagged p97 and truncations), about 3 ug p97 per reaction, buffer A, 4°C, 4 h; bound proteins by SDS-PAGE and blotting; both purified.

The target of assay [1] is T2, GST-tagged Rep8 UBX domain (truncation) (human) (UniProt O00124).
T2 sequence: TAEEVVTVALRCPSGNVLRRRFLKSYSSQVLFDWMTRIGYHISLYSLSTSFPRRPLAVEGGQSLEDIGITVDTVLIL
The assay is described as above.

Assay [2] deals with endogenous p97 (HeLa cells) (human (endogenous in HeLa)) (UniProt P55072). The assay is described as follows: co-IP; endogenous p97 immunoprecipitated from HeLa cell lysates; blot with antibodies to p97 and Rep8.

Take “p97 purified from human red blood cells (from UniProt P55072 1-806)”: the binding result (in the assay with GST-tagged Rep8 (human); in assay [1]) was “binds” in each case.

B1: endogenous Rep8 (HeLa cells) (protein, UniProt O00124 1-270)
chain: MASRGVVGIFFLSAVPLVCLELRRGIPDIGIKDFLLLCGRILLLLALLTLIISVTTSWLNSFKSPQVYLKEEEEKNEKRQKLVRKKQQEAQGEKASRYIENVLKPHQEMKLRKLEERFYQMTGEAWKLSSGHKLGGDEGTSQTSFETSNREAAKSQNLPKPLTEFPSPAEQPTCKEIPDLPEEPSQTAEEVVTVALRCPSGNVLRRRFLKSYSSQVLFDWMTRIGYHISLYSLSTSFPRRPLAVEGGQSLEDIGITVDTVLILEEKEQTN
Regarding B1, the binding result in assay [2] is listed as “binds”.
